Source: article PMC4021201, “Repositioning: the fast track to new anti-malarial medicines?” (Malaria Journal, 2014)

What was measured:
[1] = system: P. falciparum K1; test: SYBR I dye DNA staining assay (SJCRH), P. falciparum K1; details: Plasmodium falciparum, K1, 72 h, read-out: EC50 K1
[2] = system: P. falciparum 3D7; test: SYBR I dye DNA staining assay (SJCRH), P. falciparum 3D7; details: Plasmodium falciparum, 3D7, 72 h, read-out: EC50 3D7

SMILES | EC50 [1] [nM] | EC50 [2] [nM]
O=C(CCCCCCC(=O)Nc1ccccc1)NO [Vorinostat] | 840 | 1470
CO[C@@H]1[C@H](N(C)C(=O)c2ccccc2)C[C@H]2O[C@]1(C)n1c3ccccc3c3c4c(c5c6ccccc6n2c5c31)C(=O)NC4 [Midostaurin] | 150 | –
